# Assay results as given in patent US20050180949A1 (NUVELO, published 2005).
# No constants are given. Whether binding was seen depends on the method and setting. Some binding calls cover weakened binding; strength is not graded here. Tags and fused reporters may be left off the sequences shown.
# B1: full-length hC1Q/TNF7, carboxy-terminal V5His6-tagged, expressed in HEK-293 cells (ligand)
# chain: QPRGNQLKGENYSPRYICSIPGLPGPPGPPGANGSPGPHGRIGLPGRDGRDGRKGEKGEKGTAGLRGKTGPLGLAGEKGDQGETGKKGPIGPEGEKGEVGPIGPPGPKGDRGEQGDPGLPGVCRCGSIVLKSAFSVGITTSYPEERLPIIFNKVLFNEGEHYNPATGKFICAFPGIYYFSYDITLANKHLAIGLVHNGQYRIKTFDANTGNHDVASGSTVIYLQPEDEVWLEIFFTDQNGLFSDPGWADSLFSGFLLYVDTDYLDSISEDDEL
# notes: The signal peptide cleavage site is only predicted; Oligomer state as told: dimers, tetramers and higher order oligomers; also called HEK293-expressed full-length hC1Q/TNF7; human C1Q/TNF7; not shown: C-terminal V5His6 tag from the pIntron vector
# Molecular target: N-terminal V5His-tagged version of full-length hC1Q/TNF7 (human) (UniProt Q9BXJ2)
# Assay: self-association; SDS-PAGE non-reduced or reduced, with or without heating; anti-V5 Western blot
binder,measurement,value
B1,binding,binds
